Results are given in words; binding and its absence hold for the method and conditions named. In cells and extracts the contact can be indirect. Some results given as binding are weak or reduced against the parent protein; the word gives no strength. For some of these results: Sequences can lack the tags named with a protein.
Experiments:
[1] = molecular target: Flag-tagged variant of the TRiC subunit Cct1 (mouse) (UniProt P11983); assay: co-IP; Flag-tagged Cct1 or Cct2 immunoprecipitated; V1A and V1B2 detected; amino acid starvation and restimulation (Supplementary Fig. 6c)
[2] = molecular target: T1, Flag-tagged variant of the TRiC subunit Cct2 (mouse) (UniProt P80314); assay: as above
T1 sequence: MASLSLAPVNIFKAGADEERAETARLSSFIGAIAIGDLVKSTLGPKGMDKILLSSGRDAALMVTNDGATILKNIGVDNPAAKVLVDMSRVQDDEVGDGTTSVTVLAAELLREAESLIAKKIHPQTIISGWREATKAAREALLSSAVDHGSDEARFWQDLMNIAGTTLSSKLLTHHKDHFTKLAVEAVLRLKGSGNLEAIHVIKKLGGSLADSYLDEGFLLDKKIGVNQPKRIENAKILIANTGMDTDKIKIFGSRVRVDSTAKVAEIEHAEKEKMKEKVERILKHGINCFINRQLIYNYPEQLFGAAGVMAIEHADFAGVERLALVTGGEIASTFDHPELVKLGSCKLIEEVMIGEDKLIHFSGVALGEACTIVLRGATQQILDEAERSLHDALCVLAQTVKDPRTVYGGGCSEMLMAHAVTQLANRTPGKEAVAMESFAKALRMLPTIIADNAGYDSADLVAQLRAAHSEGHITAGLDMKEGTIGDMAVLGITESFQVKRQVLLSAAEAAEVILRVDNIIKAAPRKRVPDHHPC

The chains behind the UniProt entries cited, without tags or fusion partners. Where a name states a change or a piece, a line headed by the entry shows the natural chain unless it says otherwise.
UniProt P11983: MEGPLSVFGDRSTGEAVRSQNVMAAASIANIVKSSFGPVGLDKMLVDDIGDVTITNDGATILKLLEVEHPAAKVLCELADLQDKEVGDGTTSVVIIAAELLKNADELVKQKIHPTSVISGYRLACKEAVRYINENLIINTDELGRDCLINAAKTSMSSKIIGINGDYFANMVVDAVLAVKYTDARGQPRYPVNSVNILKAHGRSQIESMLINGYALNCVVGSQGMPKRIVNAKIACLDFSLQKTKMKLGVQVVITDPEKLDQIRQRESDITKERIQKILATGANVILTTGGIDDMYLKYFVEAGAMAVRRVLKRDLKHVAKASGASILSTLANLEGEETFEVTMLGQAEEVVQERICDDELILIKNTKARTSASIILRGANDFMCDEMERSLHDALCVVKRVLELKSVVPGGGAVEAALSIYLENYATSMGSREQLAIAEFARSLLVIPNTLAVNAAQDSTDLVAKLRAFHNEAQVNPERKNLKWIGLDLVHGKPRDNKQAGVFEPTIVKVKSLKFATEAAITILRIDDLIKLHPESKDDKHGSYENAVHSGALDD
UniProt P21281: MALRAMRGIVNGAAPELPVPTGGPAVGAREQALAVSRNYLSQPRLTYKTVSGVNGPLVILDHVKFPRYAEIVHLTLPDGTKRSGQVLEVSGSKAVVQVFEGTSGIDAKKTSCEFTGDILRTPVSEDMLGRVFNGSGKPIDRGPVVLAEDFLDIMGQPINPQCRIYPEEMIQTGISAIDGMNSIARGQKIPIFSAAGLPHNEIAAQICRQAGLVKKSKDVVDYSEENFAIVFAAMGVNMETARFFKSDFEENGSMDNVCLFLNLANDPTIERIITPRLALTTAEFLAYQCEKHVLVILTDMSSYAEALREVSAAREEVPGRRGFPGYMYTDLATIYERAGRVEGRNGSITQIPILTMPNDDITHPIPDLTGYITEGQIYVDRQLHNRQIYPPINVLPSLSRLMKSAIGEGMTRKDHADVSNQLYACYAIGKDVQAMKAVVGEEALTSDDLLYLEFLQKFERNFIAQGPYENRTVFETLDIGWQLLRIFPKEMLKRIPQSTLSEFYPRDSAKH
UniProt P50516: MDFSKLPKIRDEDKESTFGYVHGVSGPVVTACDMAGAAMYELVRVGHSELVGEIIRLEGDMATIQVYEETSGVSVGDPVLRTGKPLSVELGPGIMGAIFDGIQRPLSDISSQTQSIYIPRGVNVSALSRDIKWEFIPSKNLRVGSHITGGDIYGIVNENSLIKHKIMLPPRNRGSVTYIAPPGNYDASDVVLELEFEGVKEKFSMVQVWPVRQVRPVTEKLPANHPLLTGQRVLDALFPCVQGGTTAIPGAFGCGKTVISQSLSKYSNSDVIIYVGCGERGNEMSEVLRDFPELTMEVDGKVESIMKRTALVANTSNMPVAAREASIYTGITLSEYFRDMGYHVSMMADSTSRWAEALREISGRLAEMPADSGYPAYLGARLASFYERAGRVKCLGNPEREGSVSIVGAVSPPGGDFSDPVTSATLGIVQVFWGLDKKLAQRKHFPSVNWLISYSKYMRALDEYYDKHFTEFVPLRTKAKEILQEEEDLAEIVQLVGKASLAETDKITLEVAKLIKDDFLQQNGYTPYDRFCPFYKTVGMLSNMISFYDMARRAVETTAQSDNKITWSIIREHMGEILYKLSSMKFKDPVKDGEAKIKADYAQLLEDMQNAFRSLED

Row | binding [1] | binding [2] | Substance
1 | binds | binds | HA-tagged V1B2 (V-ATPase V1 domain subunit B2, ATP6V1B2) (from UniProt P21281 1-511)
2 | binds | binds | V-ATPase V1 domain subunit V1A (from UniProt P50516 1-617)

From paper PMC9385660
